Data as given in PubChem BioAssay AID720505 (Drosophila RNAi Screening Center, 2013).
Purpose: 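Genes needed for store-operated calcium entry in fly cells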 (primary screen). System: Drosophila S2R+ cells. Knock-down reagent: long dsRNA against Drosophila genes. Conditions: thapsigargin (2 µM) in calcium-free buffer to empty internal stores, then 2 mM calcium added back. Read-out: 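Fluo-4 signal in 384-well plates read on a FLIPR after thapsigargin (2 µM, calcium-free) store depletion and 2 mM calcium add-back; unnormalised mean endpoint per well; screen run twice, selected wells retested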. Scale: calcium signal and retest calcium signal: higher = more calcium entry after store depletion. Hit rule: 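About 1500 genes called as lowering calcium entry, by varying amounts, judged against per-plate control wells with STIM1 as positive and Rho1 as negative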. Meaning of the calls: active = called as lowering calcium entry; inactive = not called.
The deposit covers about 20,000 reagents; below is a random part of those that have a named target and a result. In the full data, about 2,100 (10%) got an active call. 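Raw plate signals without normalisation; calls rest on control-based scores that were not deposited; replicate 2 separates called from uncalled poorly.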 A plus sign joins genes that one reagent is predicted to hit. Not given: the amount of reagent, the time to read-out.

CG15399 [DRSC00413]
- calcium signal, replicate 1: 178
- calcium signal, replicate 2: 166
- Call: inactive

CG13220 [DRSC06342]
- calcium signal, replicate 1: 107
- calcium signal, replicate 2: 136
- Call: inactive

CG9444 [DRSC16493]
- calcium signal, replicate 1: 159
- calcium signal, replicate 2: 105
- Call: inactive

CG17177 [DRSC10257]
- calcium signal, replicate 1: 104
- calcium signal, replicate 2: 199
- Call: inactive

CG6432 [DRSC16039]
- calcium signal, replicate 1: 219
- calcium signal, replicate 2: 263
- Call: inactive

Alms1a [DRSC18558]
- calcium signal, replicate 1: 84.8
- calcium signal, replicate 2: 250
- Call: active

CG31675 [DRSC01825]
- calcium signal, replicate 1: 98.7
- calcium signal, replicate 2: 7741
- Call: inactive

Grx5 [DRSC19593]
- calcium signal, replicate 1: 106
- calcium signal, replicate 2: 163
- Call: inactive

CG33093 [DRSC15775]
- calcium signal, replicate 1: 113
- calcium signal, replicate 2: 150
- Call: inactive

laf [DRSC12246]
- calcium signal, replicate 1: 131
- calcium signal, replicate 2: 139
- Call: inactive

CG14340 [DRSC00370]
- calcium signal, replicate 1: 184
- calcium signal, replicate 2: 133
- Call: inactive

CG18605 [DRSC06772]
- calcium signal, replicate 1: 143
- calcium signal, replicate 2: 134
- Call: inactive

APP-BP1 [DRSC10920]
- calcium signal, replicate 1: 118
- calcium signal, replicate 2: 123
- Call: inactive

CG1271 [DRSC08290]
- calcium signal, replicate 1: 59.6
- calcium signal, replicate 2: 99
- Call: active

CG31122 [DRSC14787]
- calcium signal, replicate 1: 195
- calcium signal, replicate 2: 280
- retest calcium signal, replicate 1: 126
- retest calcium signal, replicate 2: 117
- Call: inactive

CG31122 [DRSC16286]
- calcium signal, replicate 1: 237
- calcium signal, replicate 2: 207
- Call: inactive

Hits, of those listed so far:
Alms1a [DRSC18558]
- calcium signal, replicate 1: 84.8
- calcium signal, replicate 2: 250
- Call: active

CG1271 [DRSC08290]
- calcium signal, replicate 1: 59.6
- calcium signal, replicate 2: 99
- Call: active

Additional records follow:
CR18275 + CG13373 [DRSC17900]
- calcium signal, replicate 1: 68.3
- calcium signal, replicate 2: 108
- Call: inactive

CG4712 [DRSC06882]
- calcium signal, replicate 1: 109
- calcium signal, replicate 2: 169
- Call: inactive

PIG-B [DRSC08216]
- calcium signal, replicate 1: 80.9
- calcium signal, replicate 2: 108
- retest calcium signal, replicate 1: 149
- retest calcium signal, replicate 2: 109
- Call: inactive

PIG-B [DRSC22598]
- calcium signal, replicate 1: 118
- calcium signal, replicate 2: 154
- Call: inactive

CG5618 [DRSC11780]
- calcium signal, replicate 1: 90.9
- calcium signal, replicate 2: 78.3
- Call: inactive

ppk13 [DRSC02382]
- calcium signal, replicate 1: 150
- calcium signal, replicate 2: 90.6
- Call: inactive

yip3 [DRSC04724]
- calcium signal, replicate 1: 105
- calcium signal, replicate 2: 152
- Call: inactive

rdgA [DRSC17863]
- calcium signal, replicate 1: 64.5
- calcium signal, replicate 2: 219
- Call: active

rdgA [DRSC18036]
- calcium signal, replicate 1: 66
- calcium signal, replicate 2: 205
- Call: active

rdgA [DRSC18827]
- calcium signal, replicate 1: 147
- calcium signal, replicate 2: 165
- Call: inactive

E2f1 [DRSC16655]
- calcium signal, replicate 1: 153
- calcium signal, replicate 2: 130
- Call: inactive

Mlf [DRSC07472]
- calcium signal, replicate 1: 100
- calcium signal, replicate 2: 86.2
- Call: inactive

CG10062 [DRSC05960]
- calcium signal, replicate 1: 166
- calcium signal, replicate 2: 101
- Call: inactive

CG10062 [DRSC22535]
- calcium signal, replicate 1: 95.4
- calcium signal, replicate 2: 151
- Call: inactive

Pex13 [DRSC06877]
- calcium signal, replicate 1: 125
- calcium signal, replicate 2: 136
- Call: inactive

CG15468 [DRSC18051]
- calcium signal, replicate 1: 244
- calcium signal, replicate 2: 88.3
- Call: inactive

ppk20 [DRSC16260]
- calcium signal, replicate 1: 133
- calcium signal, replicate 2: 111
- Call: inactive

Gr47b [DRSC05275]
- calcium signal, replicate 1: 112
- calcium signal, replicate 2: 162
- Call: inactive

Hr96 [DRSC16707]
- calcium signal, replicate 1: 181
- calcium signal, replicate 2: 296
- Call: inactive
